One assay deals with ATR kinase (Homo sapiens, UniProt Q13535). Kind of assay: Assay of ATR kinase activity (time-resolved fluorescence, phosphorylation of p53-derived protein). To be noted: read-out: ATR/IC50/nM; tested form: TFA salt. The procedure:
Biotinylated protein derived from p53 (Eurofins, art. No.: 14-952) was phosphorylated with ATR kinase. The amount of phosphorylated protein was determined by time-resolved fluorescence in this assay. The amount of phosphorylated protein was detected by anti-p53-phospho-(serine 15)-K-specific antibody (Cisbio, art. No.: 61GSTDLA) and d2 labeled anti-GST antibody (Cisbio, art. No. 61P08KAE). Before the assay, the following working solutions were formulated as required: 1×reaction buffer (20 mM HEPES PH8.0, 1% glycerol, 0.01% Brij-35), dilution buffer (20 mM HEPES PH8.0, 1% glycerol, 0.01% Brij-35, 5 mM DTT and 1% BSA), stop solution (20 mM HEPES PH8.0, 1% glycerol, 0.01% Brij-35, 250 mM EDTA), detection buffer (50 mM HEPES pH7.0, 150 mM NaCl, 267 mM KF, 0.1% sodium cholate, 0.01% Tween-20, 0.0125% sodium azide). […]
4× serially diluted compound solutions were prepared with 1× reaction buffer to give 9 compound solutions with different concentrations, and 2.5 μL of the 4× serially diluted compound solutions were added to a 384-well analysis plate (784075, Greiner). […] The fluorescence signal was detected with ENVISION (Perkinelmer) instrument (excitation wavelength: 320 nm, emission wavelength: 665 nm and 615 nm). […] IC50 values of compounds were calculated by standard software for parameter fitting (GraphPad Prism 6.0).

Sequences of proteins named here, by UniProt entry; tags and fusion partners are left off.
UniProt Q13535, whole entry: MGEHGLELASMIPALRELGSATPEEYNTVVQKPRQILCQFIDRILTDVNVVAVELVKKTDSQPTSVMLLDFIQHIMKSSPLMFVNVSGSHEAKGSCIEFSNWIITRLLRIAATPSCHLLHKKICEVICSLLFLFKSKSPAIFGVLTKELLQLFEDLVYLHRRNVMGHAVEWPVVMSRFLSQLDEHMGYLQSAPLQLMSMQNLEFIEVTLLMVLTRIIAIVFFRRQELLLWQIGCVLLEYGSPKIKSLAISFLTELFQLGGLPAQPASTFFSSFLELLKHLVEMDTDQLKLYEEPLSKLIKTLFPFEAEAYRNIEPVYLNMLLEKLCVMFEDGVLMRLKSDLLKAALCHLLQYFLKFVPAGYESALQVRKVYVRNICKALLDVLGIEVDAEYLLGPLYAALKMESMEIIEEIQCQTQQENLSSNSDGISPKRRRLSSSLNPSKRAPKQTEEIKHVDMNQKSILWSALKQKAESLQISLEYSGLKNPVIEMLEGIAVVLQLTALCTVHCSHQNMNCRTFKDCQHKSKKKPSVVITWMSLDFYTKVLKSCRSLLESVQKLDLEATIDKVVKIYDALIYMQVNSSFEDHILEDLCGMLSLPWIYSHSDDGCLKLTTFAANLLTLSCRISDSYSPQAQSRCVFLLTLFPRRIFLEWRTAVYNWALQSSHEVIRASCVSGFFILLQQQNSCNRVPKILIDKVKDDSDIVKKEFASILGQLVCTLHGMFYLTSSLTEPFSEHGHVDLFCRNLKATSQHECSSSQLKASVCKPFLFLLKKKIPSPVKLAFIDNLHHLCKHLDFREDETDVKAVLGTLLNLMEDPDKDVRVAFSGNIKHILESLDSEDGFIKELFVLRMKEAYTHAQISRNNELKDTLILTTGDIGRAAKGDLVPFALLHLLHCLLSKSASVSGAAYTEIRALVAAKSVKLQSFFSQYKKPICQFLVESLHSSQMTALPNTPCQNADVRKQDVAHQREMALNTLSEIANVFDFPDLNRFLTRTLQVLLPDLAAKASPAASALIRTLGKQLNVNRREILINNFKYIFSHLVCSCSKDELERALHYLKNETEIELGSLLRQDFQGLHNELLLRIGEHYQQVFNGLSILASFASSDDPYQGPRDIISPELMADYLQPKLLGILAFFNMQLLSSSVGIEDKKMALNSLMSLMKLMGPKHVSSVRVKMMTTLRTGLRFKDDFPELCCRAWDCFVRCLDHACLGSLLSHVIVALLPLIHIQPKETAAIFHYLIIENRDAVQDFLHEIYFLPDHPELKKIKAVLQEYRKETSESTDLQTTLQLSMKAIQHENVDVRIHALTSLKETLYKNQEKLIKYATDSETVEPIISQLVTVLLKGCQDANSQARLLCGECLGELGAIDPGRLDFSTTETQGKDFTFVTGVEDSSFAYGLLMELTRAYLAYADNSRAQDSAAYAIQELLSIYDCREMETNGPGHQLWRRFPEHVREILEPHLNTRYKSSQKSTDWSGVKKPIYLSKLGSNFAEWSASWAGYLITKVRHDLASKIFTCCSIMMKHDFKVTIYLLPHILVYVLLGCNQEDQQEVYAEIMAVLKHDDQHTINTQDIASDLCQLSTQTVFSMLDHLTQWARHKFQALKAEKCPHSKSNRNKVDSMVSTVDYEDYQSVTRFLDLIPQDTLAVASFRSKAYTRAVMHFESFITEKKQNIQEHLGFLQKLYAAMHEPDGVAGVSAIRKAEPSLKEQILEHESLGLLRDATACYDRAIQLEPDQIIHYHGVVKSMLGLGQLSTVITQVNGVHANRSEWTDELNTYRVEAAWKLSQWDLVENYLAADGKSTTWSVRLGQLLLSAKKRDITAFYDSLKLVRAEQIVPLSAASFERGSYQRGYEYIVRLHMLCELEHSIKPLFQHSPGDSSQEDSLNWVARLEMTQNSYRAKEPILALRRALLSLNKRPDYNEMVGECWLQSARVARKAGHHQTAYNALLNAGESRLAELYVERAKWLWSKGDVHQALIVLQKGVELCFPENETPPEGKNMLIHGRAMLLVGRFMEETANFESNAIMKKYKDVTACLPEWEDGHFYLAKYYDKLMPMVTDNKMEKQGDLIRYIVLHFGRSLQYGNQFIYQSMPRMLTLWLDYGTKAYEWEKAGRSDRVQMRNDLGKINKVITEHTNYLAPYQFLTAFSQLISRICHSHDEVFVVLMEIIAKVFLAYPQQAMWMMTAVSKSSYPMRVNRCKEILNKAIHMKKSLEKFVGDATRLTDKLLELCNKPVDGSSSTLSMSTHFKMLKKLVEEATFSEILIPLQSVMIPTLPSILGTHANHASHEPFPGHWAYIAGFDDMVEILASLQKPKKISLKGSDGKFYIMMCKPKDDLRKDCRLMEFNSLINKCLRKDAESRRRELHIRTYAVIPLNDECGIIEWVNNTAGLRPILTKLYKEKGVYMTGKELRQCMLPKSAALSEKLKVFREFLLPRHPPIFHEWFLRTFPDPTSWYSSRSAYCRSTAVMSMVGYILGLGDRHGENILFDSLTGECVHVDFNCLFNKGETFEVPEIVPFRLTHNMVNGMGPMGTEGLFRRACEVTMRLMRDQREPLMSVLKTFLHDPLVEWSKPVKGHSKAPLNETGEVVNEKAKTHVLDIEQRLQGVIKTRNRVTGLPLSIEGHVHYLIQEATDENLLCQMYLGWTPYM
UniProt Q8WXE1, whole entry partner: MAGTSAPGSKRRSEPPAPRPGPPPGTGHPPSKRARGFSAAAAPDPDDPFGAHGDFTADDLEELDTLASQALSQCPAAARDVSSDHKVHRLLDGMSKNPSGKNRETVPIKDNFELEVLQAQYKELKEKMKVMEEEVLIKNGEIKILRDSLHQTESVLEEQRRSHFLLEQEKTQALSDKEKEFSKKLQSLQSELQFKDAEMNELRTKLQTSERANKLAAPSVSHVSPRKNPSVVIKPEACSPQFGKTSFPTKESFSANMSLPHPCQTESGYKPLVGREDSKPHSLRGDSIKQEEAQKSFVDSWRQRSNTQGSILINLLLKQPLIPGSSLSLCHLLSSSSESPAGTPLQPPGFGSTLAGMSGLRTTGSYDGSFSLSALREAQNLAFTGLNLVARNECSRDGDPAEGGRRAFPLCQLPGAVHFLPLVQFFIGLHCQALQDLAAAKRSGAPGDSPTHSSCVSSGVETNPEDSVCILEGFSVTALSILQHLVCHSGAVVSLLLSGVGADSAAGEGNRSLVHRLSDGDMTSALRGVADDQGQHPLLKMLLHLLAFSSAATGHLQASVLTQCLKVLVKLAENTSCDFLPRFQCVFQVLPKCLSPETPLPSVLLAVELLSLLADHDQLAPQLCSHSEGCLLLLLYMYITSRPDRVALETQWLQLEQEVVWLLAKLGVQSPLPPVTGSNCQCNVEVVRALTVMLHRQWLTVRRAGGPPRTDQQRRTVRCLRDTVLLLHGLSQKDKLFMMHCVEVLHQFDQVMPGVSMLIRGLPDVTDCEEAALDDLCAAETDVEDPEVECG

A further assay relates to MV4-11 (leukemia). Kind of assay: Cell proliferation inhibition in vitro, CellTiter-Glo, MV4-11. The assay is classed as cell-based, human. To be noted: read-out: MV4-11/IC50/μM, MV4-11 cells, 120 hours, tested form: TFA salt. The procedure: (§1) By detecting the effect of compounds on cell activity in vitro in tumor cell lines TOV21G (ovarian cancer) and MV4-11 (leukemia), the inhibitory effect of compounds on cell proliferation was studied in this assay.
(§2) TOV21G cells and MV4-11 cells were purchased from American Type Culture Collection (ATCC).
MV-4-11 cells were cultured in IMDM medium (containing 20% of FBS). About 10,000 cells were inoculated in each well of a 96-well culture plate, and treated by adding different concentrations (0-10 μM) of compounds to be assayed. Each group was assayed in triplicate. Blank wells (containing medium only) and control wells (inoculated cells without being treated with drug) were set. Cells were cultured for 120 hours. 40 μL of Cell Titer-Glo solutions were added to each well, and the cells were incubated with shaking for 20 min in the dark. 100 μL of solution was transferred from each well to a 96-well blank plate, and the luminescence value was read by Biotek Synergy HI multifunctional microplate reader. Inhibition rate (%)=100%×(control well−assay well)/(control well−blank well)

For the next assay, the system named is TOV21G (ovarian cancer). The experiment in a line: Cell proliferation inhibition in vitro, CellTiter-Glo, TOV21G. The following applies: read-out: TOV21G/IC50/μM, TOV21G cells, 120 hours, tested form: TFA salt. It is filed as cell-based, human. The procedure: as §1, §2
TOV21G cells were cultured in MCDB105/M199 medium (containing 15% of FBS), and used for assaying when the cell confluence reached 85% or more. About 1000 cells were inoculated in each well of a 96-well culture plate, and cultured for 24 hours. Different concentrations (0-10 μM) of compounds to be assayed were added to treat the cells. Each group was assayed in triplicate. Blank wells (containing medium only) and control wells (inoculated cells without being treated with drug) were set. Cells were cultured for 120 hours. 40 μL of Cell Titer-Glo solutions (Promega, #G7573) were added to each well, and the cells were incubated with shaking for 20 min in the dark. 100 μL of solution was transferred from each well to a 96-well blank plate (Corning, #3917), and the luminescence value was read by Biotek Synergy H1 multifunctional microplate reader.

Structures were worked out from names or drawings and are uncertain.

In the case of `Cc1nn(-c2ccccc2)c(C)c1-c1cc(N2CCOC[C@H]2C)nc(-c2cc(F)cc3[nH]ccc23)n1`, the IC50 on ATR kinase was 29 nM; in the assay with MV4-11 (leukemia), 1.41 µM; with TOV21G (ovarian cancer), 0.726 µM.

(Values after US12692257B2, “2,4,6-tri-substituted pyrimidine compounds as ATR kinase inhibitors” (BEIJING TIDE PHARMACEUTICAL CO., LTD., priority 2020, dated 2026).)
